From patent publication US20180186880A1
Results are given in words; binding and its absence hold for the method and conditions named. Some binding calls cover weakened binding; strength is not graded here.

Amino acid sequences for entries named in this document (tags omitted). Residues count along the entry.
UniProt Q8TDQ0, residues 22-202: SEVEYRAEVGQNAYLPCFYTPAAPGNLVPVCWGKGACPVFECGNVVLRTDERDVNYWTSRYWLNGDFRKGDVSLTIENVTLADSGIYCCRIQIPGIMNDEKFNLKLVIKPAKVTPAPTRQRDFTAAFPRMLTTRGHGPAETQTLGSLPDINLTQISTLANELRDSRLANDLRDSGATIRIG

Target: TIM-3 ECD (extracellular domain of T cell immunoglobulin and mucin domain 3 protein) (UniProt Q8TDQ0)
Assay: adsorption ELISA on TIM-3 ECD

binding: binds
B1: TRL6061 (antibody, V domains shown)
VH: QVQLVESGGGVVQPGRSLRLSCAASGFMFSTSAMHWVRQTPGKGLEWLAVIWHDGSEKYYADSVKGRFSISRDNYRDTLYLQMNNLRVEDTAIYYCRGGDVYEIWGQGTMVAVSS
VL: DDIMLTQPPSVSVSPGQTARITCSGDAVAKRYVYWYQQKSGQAPVLVMYEDNKRPSGIPERFSGSSSGTKATLTITGALVEDEADYYCYSTDSSGNLGAFGGGSKLTVL
